Measurements reported in PubChem BioAssay AID504444 (National Center for Advancing Translational Sciences (NCATS), 2011).
In all, about 360,000 compounds went through this assay and about 7,500 (2.1%) were called active. The inconclusive results got no clear call from the source; some entries with a clear call stand among them for comparison. Calls follow the shape of the dose curve; as a rule, active = well fitted inhibition curve with a large enough effect; inconclusive = small, poorly fitted or top-dose-only effect, or effect the other way; inactive = flat fitted curve, though single readings scatter. Potencies of inconclusive entries are doubtful fits and often do not repeat.

Assay: Nrf2 qHTS screen for inhibitors; also: nearly all actives have a fitted effect of over 60% in size
Details: A549 ARE-Fluc reporter, luciferase luminescence, 18-24 h; series mostly up to 46 µM
Procedure, shortened: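 In this cell-based qHTS, ARE-driven firefly luciferase in A549 cells reports Nrf2 activity; the luminescent signal after BugLite lysis is the measured value, with a prior CellTiter-Fluor read for cell health.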
Potency is read from the fitted curve at half-maximal effect.

Compound	Potency
CC(=O)c1ccc(-c2ccc(C(=O)NCC(c3ccco3)N(C)C)o2)cc1 (stereo not given)	inconclusive: 11.6 µM [activator, partial curve]
CCn1c(=S)[nH]c2c(c1=O)C(C)(C)Cc1ccccc1-2	inactive
O=C(Nc1ccc(Cn2nnc3ccccc32)cc1)c1ccco1	inactive
Cc1cnc(C(=O)OCC(=O)NC2CCCCC2)cn1	inconclusive: 20.6 µM [activator, partial curve, poor fit]
O=C(Nc1ccccc1O)c1c(O)c2c([nH]c1=O)CCCC2	inconclusive: 29.1 µM [activator, single point]
CCc1ccc(NS(=O)(=O)c2ccc3[nH]cc(C(=O)NCC4CCCO4)c(=O)c3c2)cc1 (stereo not given)	inactive
O=C(NCc1ccccn1)c1cccc(NS(=O)(=O)c2cccc(F)c2)c1	inactive
CCC1(c2ccccc2)NC(=O)N(CC(=O)Nc2cccc(S(=O)(=O)N3CCCCC3)c2)C1=O (stereo not given)	inactive
CCNC(=O)C(=O)c1c(-c2ccccc2)[nH]c2ccccc12	inactive
Cc1ccccc1S(=O)(=O)Cc1ccc(C(=O)NC2CCCCC2)o1	inconclusive: 29.1 µM [falling, single point]
CCOc1ccc(OCC)c(S(=O)(=O)N2CCCCC2C)c1 (stereo not given)	inconclusive: 13 µM [falling, partial curve, poor fit]
O=[N+]([O-])c1ccc(O)c(C(C#Cc2ccccc2)N2CCOCC2)c1 (stereo not given)	inactive
CC(=O)Nc1ccc2oc(-c3ccccc3Br)nc2c1	inconclusive: 6.51 µM [activator, partial curve]
COc1ccc(C(=O)CSc2nc(=O)n(Cc3cccnc3)c3c2CCC3)cc1	inactive
Cc1cc(S(=O)(=O)Nc2ccc3cn[nH]c3c2)c(C)cc1Cl	inconclusive: 23.1 µM [falling, partial curve, poor fit]
O=c1c(Br)ccc(Br)cc1Br	inconclusive: 29.1 µM [falling, single point]
O=C(NC(=S)NNC(=O)c1cccs1)c1ccc(Br)o1	inconclusive: 23.1 µM [falling, partial curve, poor fit]
CN1CCN(c2nc(N3CCN(c4ccccc4)CC3)ncc2F)CC1	inconclusive: 11.6 µM [falling, partial curve, poor fit]
Cc1ccc(OC(=O)c2cc(-c3ccc4c(c3)OCCO4)on2)cc1C	inactive
COc1ccc(S(=O)(=O)N2CCOC2CNC(=O)C(=O)NCCc2c[nH]c3ccccc23)cc1C (stereo not given)	inconclusive: 29.1 µM [falling, single point]
Cc1cc(=O)oc(C)c1C(=O)Nc1ccc2ncccc2c1	inconclusive: 4.11 µM [activator, partial curve, poor fit]
CC(=O)c1ccc(N2CCN(S(=O)(=O)c3ccc(-c4cc(C(F)(F)F)on4)s3)CC2)cc1	inconclusive: 3.26 µM [falling, single point]

Compound	Potency
C/C(=N\NC(=O)c1ccc(CN2CCOCC2)cc1)c1ccc(NC(=O)c2ccccc2)cc1	inconclusive: 29.1 µM [activator, partial curve, poor fit]
Cc1ccccc1OCC(=O)OCc1cc(=O)n2nc(C3CCCCC3)sc2n1	inconclusive: 29.1 µM [activator, single point]
Cn1c2ccccc2c(=O)c2cc(C#Cc3cccc(N)c3)ccc21	inconclusive: 16.4 µM [activator, partial curve]
CCOc1ccccc1NC(=O)COC(=O)c1cc(C(=O)OC)cc([N+](=O)[O-])c1	inactive
CCC(C)(C)C(=O)Nc1nnc(CCc2ccccc2)s1	inconclusive: 29.1 µM [activator, single point]
CC(C)(C)c1ccc(C(=O)N2CCCN(c3ccc([N+](=O)[O-])cn3)CC2)cc1	inconclusive: 18.4 µM [falling, single point]
Cc1ccc(N/C(SCc2ccccc2C)=C(/C#N)C(=O)NCc2ccco2)cc1C	inconclusive: 29.1 µM [falling, single point]
Cc1onc(-c2ccccc2)c1C(=O)N/N=C/C=C/c1ccccc1	inconclusive: 11.6 µM [activator, partial curve, poor fit]
O=C(NC(NC(=S)Nc1c(Cl)cccc1Cl)C(Cl)(Cl)Cl)c1cccc([N+](=O)[O-])c1 (stereo not given)	active: 16.4 µM
CC1CCCN(C(=O)CN(C)S(=O)(=O)c2ccc3c(c2)c(=O)n(C)c(=O)n3C)C1 (stereo not given)	inconclusive: 29.1 µM [falling, single point]
O=C(/C=C/c1cccc(F)c1)N1CCc2ccccc21	inconclusive: 1.46 µM [activator, full curve]
Cc1ccnc(NC(=O)c2ccc(Br)s2)c1	inconclusive: 3.66 µM [activator, partial curve]
COc1cccc(C(=O)NCCN2CCN(c3ccccc3)CC2)c1	inconclusive: 5.8 µM [falling, full curve, poor fit]
Cc1csc(C(C#N)C(=O)c2cc3ccccc3o2)n1 (stereo not given)	inconclusive: 29.1 µM [falling, single point]
O=C(NCc1cccnc1)c1cccc(-c2cc3ccccc3oc2=O)c1	inconclusive: 6.51 µM [activator, partial curve, poor fit]
Cc1cc(NC(=O)CCN2C(=O)C3C4C=CC(C4)C3C2=O)c2ccccc2n1 (stereo not given)	inconclusive: 29.1 µM [falling, single point]
Cc1oc2ncn(CC(C)C)c(=O)c2c1C(=O)NCCCN1CCCCC1	inconclusive: 29.1 µM [activator, single point]
CCn1c(SCc2nc(CC(=O)Nc3ccccc3OC)no2)nnc1-c1cccs1	inconclusive: 2.31 µM [activator, partial curve, poor fit]
c1cncc(CSc2ccc(-c3ccc4c(c3)OCO4)nn2)c1	inconclusive: 18.4 µM [falling, single point]
COc1ccc(CNC(=O)C[C@H]2C[C@H](C(=O)N3CCCCC3)[C@@]3(C)c4[nH]c5ccc(Cl)cc5c4CCN3C2=O)cc1OC	inconclusive: 29.1 µM [falling, single point]
Cn1c(=O)c2c(O)c([N+](=O)[O-])c(=O)n(C)c2n(C)c1=O	inactive
O=C(/C=C/c1ccc([N+](=O)[O-])cc1)NCCc1ccc(F)cc1	inconclusive: 4.11 µM [activator, full curve, poor fit]

Compound	Potency
O=S(=O)(Nc1cccc(-c2nc3cccnc3s2)c1)c1ccc2c(c1)CCCC2	inconclusive: 25.9 µM [falling, partial curve, poor fit]
COc1ccc2c(c1)[nH]c1c(N3CCN(Cc4ccc5c(c4)OCO5)CC3)ncnc12	active: 13 µM
Cc1cc(C)c(NC(=O)c2cc3sc(Cl)cc3n2C)c(C)c1	inconclusive: 2.91 µM [activator, single point]
Fc1ccccc1-c1nc(-c2ccc(-c3nn[nH]n3)cc2)no1	inconclusive: 16.4 µM [activator, partial curve]
Nc1ccc[n+](Cc2ccccn2)c1	inconclusive: 32.6 µM [falling, single point]
Cc1ccc(C(=O)Nc2sc3c(c2C#N)CCCCC3)cc1C	inconclusive: 11.6 µM [activator, partial curve, poor fit]
CCC(C)n1nccc1NC(=O)C(C)OC(=O)c1cc2ccccc2[nH]1 (stereo not given)	inconclusive: 18.4 µM [falling, single point]
O=[N+]([O-])c1ccc(-c2nnc(CNC3CCCC3)o2)cc1	inconclusive: 7.31 µM [activator, partial curve, poor fit]
Cc1ccc(CNC(=O)c2cc3c(C)nc4ccccc4c3o2)cc1	active: 18.4 µM
CCCCCOC(=O)CSc1ncnc2c1sc1nc(N3CCOCC3)c3c(c12)CCCC3	inconclusive: 0.731 µM [falling, partial curve, poor fit]
Clc1cc(Cl)cc(Nc2ncnc(-n3cccc3)n2)c1	inactive
CCOC(=O)N1CCC(N2CC34C=CC(O3)C(C(=O)Nc3ccc(OCC)cc3)C4C2=O)CC1 (stereo not given)	inconclusive: 1.46 µM [falling, partial curve]
CCCCc1ccc(N=N/C(C(=O)Nc2cc(OC)c(NC(C)=O)cc2OC)=C(/C)O)cc1	inconclusive: 1.3 µM [falling, partial curve, poor fit]
COc1cc(/C=C/C(=O)OCC(=O)Nc2cccc(F)c2)ccc1O	inconclusive: 18.4 µM [activator, partial curve, poor fit]
CC(C)SCCCCOc1ccc2ccccc2c1	inconclusive: 16.4 µM [activator, partial curve]
Cc1cc(Nc2cccc(C)c2C)n2cnnc2n1	inconclusive: 16.4 µM [activator, partial curve, poor fit]
COC(=O)CSC1=C(C#N)C(=O)NC2(CCCCC2)S1	inconclusive: 4.11 µM [activator, full curve, poor fit]
C/C(=N/O)c1cc(C(C)(C)C)c(O)c(C(C)(C)C)c1	inconclusive: 0.731 µM [falling, full curve, poor fit]
CC1(C)C=Cc2c(ccc3c2OC[C@H](c2ccc(O)cc2O)C3)O1	inactive
O=C(COC(=O)c1ccc(-c2nnc(-c3ccccc3)o2)cc1)c1ccccc1	inconclusive: 0.651 µM [activator, full curve, poor fit]
COC(=O)c1ccc(C)c(NS(=O)(=O)c2ccc(NC(C)=O)cc2)c1	inconclusive: 11.6 µM [falling, partial curve, poor fit]

Some of these compounds in order of number of heavy atoms, rising:
Compound	Potency
CCn1c(=S)[nH]c2c(c1=O)C(C)(C)Cc1ccccc1-2	inactive
Cc1ccccc1S(=O)(=O)Cc1ccc(C(=O)NC2CCCCC2)o1	inconclusive: 29.1 µM [falling, single point]
CCC(C)n1nccc1NC(=O)C(C)OC(=O)c1cc2ccccc2[nH]1 (stereo not given)	inconclusive: 18.4 µM [falling, single point]
